For assay [1], the target named is StrepII-His6-RBPMS-A (rat). The assay can be described thus: pull-down.
For assay [2], the target named is recombinant untagged full length rat RBPMS-A (rat). Kind of assay: co-sedimentation.
The target of assay [3] is StrepII-His6-RBPMS-A-K100E (rat). The assay can be described thus: pull-down.

By UniProt entry, the sequences of proteins in these tests, tags left out.
UniProt P26599: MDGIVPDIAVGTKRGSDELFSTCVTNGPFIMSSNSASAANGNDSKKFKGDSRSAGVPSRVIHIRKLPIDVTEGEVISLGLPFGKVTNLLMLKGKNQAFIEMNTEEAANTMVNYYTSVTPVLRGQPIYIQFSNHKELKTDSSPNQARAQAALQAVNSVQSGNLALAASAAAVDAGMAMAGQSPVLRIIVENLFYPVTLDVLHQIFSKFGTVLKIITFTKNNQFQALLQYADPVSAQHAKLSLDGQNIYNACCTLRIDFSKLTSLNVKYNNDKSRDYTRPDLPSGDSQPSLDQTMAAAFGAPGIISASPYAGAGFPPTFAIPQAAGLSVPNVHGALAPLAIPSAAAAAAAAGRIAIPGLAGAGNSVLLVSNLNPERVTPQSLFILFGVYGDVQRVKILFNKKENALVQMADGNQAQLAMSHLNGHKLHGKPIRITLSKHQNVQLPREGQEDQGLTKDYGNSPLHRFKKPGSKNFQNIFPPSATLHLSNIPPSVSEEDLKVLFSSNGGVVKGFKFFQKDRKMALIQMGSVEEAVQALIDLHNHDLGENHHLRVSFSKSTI

These are yes or no findings as the source states them, for the method shown. Binding seen in cells or lysates may run through a third protein. Some results given as binding are weak or reduced against the parent protein; the word gives no strength.

This is an account of results in publication doi:10.1101/2023.01.23.525191.

As to PTBP1 (from UniProt P26599 1-557), the binding result in assay [1] was “no binding (tested: 2 μM)”.

B1: RBM14 (protein, UniProt Q96PK6 1-669)
chain: MKIFVGNVDGADTTPEELAALFAPYGTVMSCAVMKQFAFVHMRENAGALRAIEALHGHELRPGRALVVEMSRPRPLNTWKIFVGNVSAACTSQELRSLFERRGRVIECDVVKDYAFVHMEKEADAKAAIAQLNGKEVKGKRINVELSTKGQKKGPGLAVQSGDKTKKPGAGDTAFPGTGGFSATFDYQQAFGNSTGGFDGQARQPTPPFFGRDRSPLRRSPPRASYVAPLTAQPATYRAQPSVSLGAAYRAQPSASLGVGYRTQPMTAQAASYRAQPSVSLGAPYRGQLASPSSQSAAASSLGPYGGAQPSASALSSYGGQAAAASSLNSYGAQGSSLASYGNQPSSYGAQAASSYGVRAAASSYNTQGAASSLGSYGAQAASYGAQSAASSLAYGAQAASYNAQPSASYNAQSAPYAAQQAASYSSQPAAYVAQPATAAAYASQPAAYAAQATTPMAGSYGAQPVVQTQLNSYGAQASMGLSGSYGAQSAAAATGSYGAAAAYGAQPSATLAAPYRTQSSASLAASYAAQQHPQAAASYRGQPGNAYDGAGQPSAAYLSMSQGAVANANSTPPPYERTRLSPPRASYDDPYKKAVAMSKRYGSDRRLAELSDYRRLSESQLSFRRSPTKSSLDYRRLPDAHSDYARYSGSYNDYLRAAQMHSGYQRRM
On to B1, for which the binding entry in assay [1] is reported as “binds”.

B2: RBFOX2 (protein, UniProt O43251 1-390)
chain: MQNEPLTPGYHGFPARDSQGNQEPTTTPDAMVQPFTTIPFPPPPQNGIPTEYGVPHTQDYAGQTGEHNLTLYGSTQAHGEQSSNSPSTQNGSLTTEGGAQTDGQQSQTQSSENSESKSTPKRLHVSNIPFRFRDPDLRQMFGQFGKILDVEIIFNERGSKGFGFVTFENSADADRAREKLHGTVVEGRKIEVNNATARVMTNKKMVTPYANGWKLSPVVGAVYGPELYAASSFQADVSLGNDAAVPLSGRGGINTYIPLISLPLVPGFPYPTAATTAAAFRGAHLRGRGRTVYGAVRAVPPTAIPAYPGVVYQDGFYGADLYGGYAAYRYAQPATATAATAAAAAAAAYSDGYGRVYTADPYHALAPAASYGVGAVASLYRGGYSRFAPY
Turning to B2, the binding entry in assay [2], in assay [3] and in assay [1] was “binds” throughout.

B3: ESRP2 (protein, UniProt Q9H6T0 1-727)
chain: MTPPPPPPPPPGPDPAADPAADPCPWPGSLVVLFGATAGALGRDLGSDETDLILLVWQVVEPRSRQVGTLHKSLVRAEAAALSTQCREASGLSADSLARAEPLDKVLQQFSQLVNGDVALLGGGPYMLCTDGQQLLRQVLHPEASRKNLVLPDMFFSFYDLRREFHMQHPSTCPARDLTVATMAQGLGLETDATEDDFGVWEVKTMVAVILHLLKEPSSQLFSKPEVIKQKYETGPCSDSTVPCPYSSKADVVDSETVVRARGLPWQSSDQDVARFFKGLNVARGGVALCLNAQGRRNGEALIRFVDSEQRDLALQRHKHHMGVRYIEVYKATGEEFVKIAGGTSLEVARFLSREDQVILRLRGLPFSAGPTDVLGFLGPECPVTGGTEGLLFVRHPDGRPTGDAFALFACEELAQAALRRHKGMLGKRYIELFRSTAAEVQQVLNRYASGPLLPTLTAPLLPIPFPLAPGTGRDCVRLRGLPYTATIEDILSFLGEAAADIRPHGVHMVLNQQGRPSGDAFIQMTSAERALAAAQRCHKKVMKERYVEVVPCSTEEMSRVLMGGTLGRSGMSPPPCKLPCLSPPTYTTFQATPTLIPTETAALYPSSALLPAARVPAAPTPVAYYPGPATQLYLNYTAYYPSPPVSPTTVGYLTTPTAALASAPTSVLSQSGALVRMQGVPYTAGMKDLLSVFQAYQLPADDYTSLMPVGDPPRTVLQAPKEWVCL
With B3, in assay [1], the binding entry is listed as “binds”.

B4: MATR3 (protein, UniProt P43243 1-847)
chain: MSKSFQQSSLSRDSQGHGRDLSAAGIGLLAAATQSLSMPASLGRMNQGTARLASLMNLGMSSSLNQQGAHSALSSASTSSHNLQSIFNIGSRGPLPLSSQHRGDADQASNILASFGLSARDLDELSRYPEDKITPENLPQILLQLKRRRTEEGPTLSYGRDGRSATREPPYRVPRDDWEEKRHFRRDSFDDRGPSLNPVLDYDHGSRSQESGYYDRMDYEDDRLRDGERCRDDSFFGETSHNYHKFDSEYERMGRGPGPLQERSLFEKKRGAPPSSNIEDFHGLLPKGYPHLCSICDLPVHSNKEWSQHINGASHSRRCQLLLEIYPEWNPDNDTGHTMGDPFMLQQSTNPAPGILGPPPPSFHLGGPAVGPRGNLGAGNGNLQGPRHMQKGRVETSRVVHIMDFQRGKNLRYQLLQLVEPFGVISNHLILNKINEAFIEMATTEDAQAAVDYYTTTPALVFGKPVRVHLSQKYKRIKKPEGKPDQKFDQKQELGRVIHLSNLPHSGYSDSAVLKLAEPYGKIKNYILMRMKSQAFIEMETREDAMAMVDHCLKKALWFQGRCVKVDLSEKYKKLVLRIPNRGIDLLKKDKSRKRSYSPDGKESPSDKKSKTDGSQKTESSTEGKEQEEKSGEDGEKDTKDDQTEQEPNMLLESEDELLVDEEEAAALLESGSSVGDETDLANLGDVASDGKKEPSDKAVKKDGSASAAAKKKLKKVDKIEELDQENEAALENGIKNEENTEPGAESSENADDPNKDTSENADGQSDENKDDYTIPDEYRIGPYQPNVPVGIDYVIPKTGFYCKLCSLFYTNEEVAKNTHCSSLPHYQKLKKFLNKLAEERRQKKET
As for B4, the binding result in assay [1] is reported as “binds”.
